# Data taken from PubChem BioAssay (EPA / NIEHS).
# Chains of the proteins cited; added tags and fusions are not shown. Lines headed by an entry give the natural chain unless they say otherwise; changes in a name come on top.
# UniProt P62508: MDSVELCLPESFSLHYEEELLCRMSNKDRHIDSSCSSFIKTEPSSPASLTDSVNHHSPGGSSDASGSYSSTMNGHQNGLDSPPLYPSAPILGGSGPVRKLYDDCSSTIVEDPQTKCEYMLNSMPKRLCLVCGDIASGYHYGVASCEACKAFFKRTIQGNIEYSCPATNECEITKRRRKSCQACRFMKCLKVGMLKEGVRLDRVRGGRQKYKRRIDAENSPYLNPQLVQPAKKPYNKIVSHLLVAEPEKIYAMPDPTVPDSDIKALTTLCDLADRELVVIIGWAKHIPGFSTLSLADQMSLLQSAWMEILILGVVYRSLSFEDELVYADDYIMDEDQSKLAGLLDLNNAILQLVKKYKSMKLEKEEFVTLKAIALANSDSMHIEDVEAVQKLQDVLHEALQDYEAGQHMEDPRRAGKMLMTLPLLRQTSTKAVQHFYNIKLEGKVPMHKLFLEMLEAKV
# UniProt P04150: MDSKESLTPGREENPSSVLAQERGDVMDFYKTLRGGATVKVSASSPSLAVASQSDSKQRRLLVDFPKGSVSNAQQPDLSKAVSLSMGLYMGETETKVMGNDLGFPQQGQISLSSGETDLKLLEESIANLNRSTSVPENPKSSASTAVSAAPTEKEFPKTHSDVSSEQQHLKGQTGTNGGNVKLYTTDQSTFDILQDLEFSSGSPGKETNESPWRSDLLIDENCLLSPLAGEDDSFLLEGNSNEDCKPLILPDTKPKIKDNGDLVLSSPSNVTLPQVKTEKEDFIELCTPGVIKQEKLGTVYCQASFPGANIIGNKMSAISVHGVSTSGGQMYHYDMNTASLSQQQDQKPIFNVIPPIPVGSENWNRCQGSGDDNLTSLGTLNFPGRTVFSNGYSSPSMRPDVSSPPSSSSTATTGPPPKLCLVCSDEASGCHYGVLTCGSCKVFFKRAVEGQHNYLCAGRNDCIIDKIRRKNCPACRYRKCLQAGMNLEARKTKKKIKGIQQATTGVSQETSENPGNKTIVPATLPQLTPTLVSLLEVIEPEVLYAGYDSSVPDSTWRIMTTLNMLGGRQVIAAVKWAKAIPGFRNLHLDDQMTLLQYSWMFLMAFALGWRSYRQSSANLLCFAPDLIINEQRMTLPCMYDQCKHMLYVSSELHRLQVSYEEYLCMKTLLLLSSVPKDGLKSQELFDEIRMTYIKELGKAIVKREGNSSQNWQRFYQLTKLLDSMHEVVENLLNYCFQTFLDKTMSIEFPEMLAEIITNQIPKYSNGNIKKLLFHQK
# UniProt Q96RI1: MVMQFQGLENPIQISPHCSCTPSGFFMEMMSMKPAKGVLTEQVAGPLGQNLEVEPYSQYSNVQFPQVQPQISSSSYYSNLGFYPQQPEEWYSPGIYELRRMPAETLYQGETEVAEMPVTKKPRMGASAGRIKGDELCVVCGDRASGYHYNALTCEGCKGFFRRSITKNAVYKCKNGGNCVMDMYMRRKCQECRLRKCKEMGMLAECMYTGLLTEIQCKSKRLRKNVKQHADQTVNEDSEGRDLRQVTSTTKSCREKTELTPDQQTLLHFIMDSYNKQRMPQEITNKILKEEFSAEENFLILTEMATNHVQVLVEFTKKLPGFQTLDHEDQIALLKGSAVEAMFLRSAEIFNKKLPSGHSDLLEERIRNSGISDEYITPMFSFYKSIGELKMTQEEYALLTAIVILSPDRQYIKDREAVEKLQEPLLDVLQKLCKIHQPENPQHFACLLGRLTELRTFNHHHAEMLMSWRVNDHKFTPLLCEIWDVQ
# UniProt Q13133, whole entry, looked up: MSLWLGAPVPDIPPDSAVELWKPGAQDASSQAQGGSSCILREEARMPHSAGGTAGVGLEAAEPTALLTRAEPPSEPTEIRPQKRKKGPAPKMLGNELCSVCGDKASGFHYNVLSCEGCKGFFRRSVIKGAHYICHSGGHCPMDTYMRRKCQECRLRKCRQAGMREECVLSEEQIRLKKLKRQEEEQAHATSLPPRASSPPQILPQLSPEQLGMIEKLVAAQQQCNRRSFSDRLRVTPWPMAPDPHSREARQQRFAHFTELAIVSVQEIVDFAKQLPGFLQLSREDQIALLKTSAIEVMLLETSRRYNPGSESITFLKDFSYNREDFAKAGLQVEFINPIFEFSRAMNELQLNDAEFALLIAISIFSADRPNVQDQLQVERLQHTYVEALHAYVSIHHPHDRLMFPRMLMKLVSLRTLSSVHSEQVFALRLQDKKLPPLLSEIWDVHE
# UniProt P55055, whole entry, looked up: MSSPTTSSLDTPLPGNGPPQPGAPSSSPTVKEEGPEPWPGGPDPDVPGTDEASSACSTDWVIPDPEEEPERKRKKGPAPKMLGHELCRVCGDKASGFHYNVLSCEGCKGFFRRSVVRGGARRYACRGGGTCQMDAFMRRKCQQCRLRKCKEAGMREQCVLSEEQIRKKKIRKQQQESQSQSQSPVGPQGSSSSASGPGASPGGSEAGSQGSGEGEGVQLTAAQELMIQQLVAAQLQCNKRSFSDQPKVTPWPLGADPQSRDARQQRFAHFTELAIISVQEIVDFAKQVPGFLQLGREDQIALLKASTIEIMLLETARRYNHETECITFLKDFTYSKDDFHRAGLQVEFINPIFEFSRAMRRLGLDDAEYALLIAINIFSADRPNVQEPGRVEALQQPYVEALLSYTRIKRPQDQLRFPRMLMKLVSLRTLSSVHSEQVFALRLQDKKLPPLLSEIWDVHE
# Inconclusive results, whose numbers are uncertain, are shown with a selection of clear calls. A potency beside an inconclusive call is a rough fit, not a confirmed value. Activity calls are given as the source filed them. How the source made its calls: active means hit-call score of the fitted dose curve at least 0.9, where 1 is the maximum; inconclusive means response in the unintended direction; inactive means score below 0.9.
# Biological target: Estrogen-related receptor gamma (Homo sapiens) (UniProt P62508)
# Assay: ATG_ERRg_TRANS: Attagene TRANS-FACTORIAL HepG2 Assay for human Estrogen-Related Receptor gamma (ERRg) (AID 2282977);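 further: hits increase reporter signal over DMSO so potencies reflect activators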
# Settings: HepG2 Attagene TRANS reporter, ERRg transactivation
# Outline: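 HepG2 cells transiently transfected with multiplexed GAL4-UAS reporter units driven by chimeric NR-Gal4 proteins; 24 h exposure. Reporter mRNA quantified by RT-PCR, fluorescent labelling, HpaI digestion and capillary electrophoresis; gain of signal vs DMSO.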
Compound,outcome,AC50
COc1ccc(CCN2CCC(Nc3nc4ccccc4n3Cc3ccc(F)cc3)CC2)cc1,inactive,–
CSc1ccc(O)cc1C,inactive,–
C=C1CC/C=C(\C)CC[C@@H]2[C@@H]1CC2(C)C,inactive,–
O=CC(F)(F)C(F)(F)C(F)(F)C(F)F,inactive,–
COCCc1ccc(OCC(O)CNC(C)C)cc1 (centres undefined),–,inconclusive: 100 µM
NC(=O)C(F)(F)C(F)(F)C(F)(F)C(F)(F)C(N)=O,–,inconclusive: 150 µM

# Biological target: Glucocorticoid receptor (Homo sapiens) (UniProt P04150)
# Assay: ATG_GR_TRANS: Attagene TRANS-FACTORIAL HepG2 Assay for human Glucocorticoid Receptor (GR) (AID 2282978);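 further: activators score as hits since higher reporter transcript over DMSO is fitted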
# Settings: HepG2 Attagene TRANS GR reporter, mRNA transcription
# Outline: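 HepG2 transient transfection, multiple reporter units, GAL4-UAS under NR-GAL4 chimera control. 24 h treatment. Reporter mRNA by RT-PCR/CE fluorescence, DMSO as negative control.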
Compound,AC50,outcome
COc1ccc(CCN2CCC(Nc3nc4ccccc4n3Cc3ccc(F)cc3)CC2)cc1,inconclusive: 0.00197 µM,–
O=CC(F)(F)C(F)(F)C(F)(F)C(F)F,–,inactive
NC(=O)C(F)(F)C(F)(F)C(F)(F)C(F)(F)C(N)=O,inconclusive: 7.93 µM,–

# Biological target: Bile acid receptor (Homo sapiens) (UniProt Q96RI1)
# Assay: ATG_FXR_TRANS: Attagene TRANS-FACTORIAL HepG2 Assay for Farnesoid X Receptor (FXR) (AID 2282979);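 further: hits raise reporter mRNA above DMSO so AC50 marks FXR activation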
# Settings: HepG2 Attagene TRANS FXR-GAL4 reporter transcription
# Outline: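 Chimeric FXR-GAL4 activity in transiently transfected human HepG2 liver cells is scored as induction of reporter mRNA after 24 h of dosing. Detection uses RT-PCR with fluorescent labelling and capillary electrophoresis, with DMSO serving as baseline.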
Compound,outcome,AC50
COc1ccc(CCN2CCC(Nc3nc4ccccc4n3Cc3ccc(F)cc3)CC2)cc1,inactive,–
CSc1ccc(O)cc1C,inactive,–
C=C1CC/C=C(\C)CC[C@@H]2[C@@H]1CC2(C)C,inactive,–
ClC(c1ccccc1)(c1ccccc1)c1ccccc1,inactive,–
CC(O)CN(CCN(CC(C)O)CC(C)O)CC(C)O (centres undefined),–,inconclusive: 100 µM
CC1CCC(C(=O)O)CC1 (centres undefined),inactive,–
CC(=O)C(C)O (centres undefined),–,inconclusive: 0.0823 µM
COCCc1ccc(OCC(O)CNC(C)C)cc1 (centres undefined),–,inconclusive: 24.9 µM
O=C(O)c1snc(Cl)c1Cl,–,inconclusive: 48.8 µM
NC(=O)C(F)(F)C(F)(F)C(F)(F)C(F)(F)C(N)=O,–,inconclusive: 8.14 µM

# Biological target: Oxysterols receptor LXR-alpha (Homo sapiens) (UniProt Q13133)
# Assay: ATG_LXRa_TRANS: Attagene TRANS-FACTORIAL HepG2 Assay for human Liver X Receptor alpha (LXRa) (AID 2282980)
# Settings: HepG2 Attagene TRANS reporter, LXRa transactivation
# Outline: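 Transient HepG2 transfectants, 24 h dosing, RT-PCR/CE mRNA reporter quantitation; gain-of-signal vs DMSO.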
Compound,AC50,outcome
CCCCCCCCCC(=O)OCC,inconclusive: 100 µM,–
COc1ccc(CCN2CCC(Nc3nc4ccccc4n3Cc3ccc(F)cc3)CC2)cc1,inconclusive: 2.78 µM,–
CSc1ccc(O)cc1C,inconclusive: 100 µM,–
CC(C)=CCC/C(C)=C/COC=O,–,inactive
C=C1CC/C=C(\C)CC[C@@H]2[C@@H]1CC2(C)C,inconclusive: 100 µM,–
CCCCC(CC)COC(=O)c1ccc(N(C)C)cc1 (centres undefined),inconclusive: 100 µM,–
Cc1cccc(Nc2ccccc2C(=O)O)c1C,inconclusive: 100 µM,–
CCCCc1nc2cccnc2n1Cc1ccc(-c2ccccc2-c2nnn[nH]2)cc1,–,inactive
NC(N)=NC(=O)c1nc(Cl)c(N)nc1N,inconclusive: 100 µM,–
CCC1(c2ccccc2)C(=O)NCNC1=O,inconclusive: 100 µM,–
O=CC(F)(F)C(F)(F)C(F)(F)C(F)F,–,inactive
N#Cc1cscn1,–,inactive
ClC(c1ccccc1)(c1ccccc1)c1ccccc1,inconclusive: 19.8 µM,–

Compound,AC50,outcome
C=C(C)C(=O)OCC1CCCO1 (centres undefined),inconclusive: 100 µM,–
CC(O)CN(CCN(CC(C)O)CC(C)O)CC(C)O (centres undefined),–,inactive
O=S(=O)(O)c1ccc(O)c2ncccc12,inconclusive: 100 µM,–
CCCCCCCCc1ccc(S(=O)(=O)O)cc1,inconclusive: 33.2 µM,–
Cc1c(Cl)cccc1Cl,inconclusive: 183 µM,–
COCCc1ccc(OCC(O)CNC(C)C)cc1 (centres undefined),inconclusive: 0.419 µM,–
CC(C)CCOC(=O)c1ccccc1,inconclusive: 100 µM,–
O=C(O)c1ccc(C(=O)O)cc1,–,inactive
C=C1CC[C@H](O)C/C1=C/C=C1\CCC[C@]2(C)[C@@H]([C@H](C)/C=C/[C@H](C)C(C)C)CC[C@@H]12,–,inactive
NS(=O)(=O)O,–,inactive
Cc1ccc(Nc2ccc(O)c3c2C(=O)c2ccccc2C3=O)cc1,–,inactive
NC(=O)C(F)(F)C(F)(F)C(F)(F)C(F)(F)C(N)=O,inconclusive: 150 µM,–
CCCCCCCCCC/C=C/C1CC(=O)OC1=O (centres undefined),–,inactive

# Biological target: Oxysterols receptor LXR-beta (Homo sapiens) (UniProt P55055)
# Assay: ATG_LXRb_TRANS: Attagene TRANS-FACTORIAL HepG2 Assay for human Liver X Receptor beta (LXRb) (AID 2282981)
# Settings: HepG2 Attagene TRANS GAL4-LXRb reporter, mRNA
# Outline: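 HepG2 cells transiently transfected with GAL4-UAS reporter units for chimeric NR-Gal4 proteins, dosed for 24 h. Reporter transcripts measured by RT-PCR and capillary electrophoresis; gain-of-signal fitting relative to DMSO.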
Compound,AC50,outcome
O=C=NC1CCC(CC2CCC(N=C=O)CC2)CC1 (centres undefined),inconclusive: 24.3 µM,–
CCCCCCCCCC(=O)OCC,inconclusive: 100 µM,–
COc1ccc(CCN2CCC(Nc3nc4ccccc4n3Cc3ccc(F)cc3)CC2)cc1,inconclusive: 2.78 µM,–
CSc1ccc(O)cc1C,inconclusive: 100 µM,–
C=C1CC/C=C(\C)CC[C@@H]2[C@@H]1CC2(C)C,inconclusive: 100 µM,–
CCCCC(CC)COC(=O)c1ccc(N(C)C)cc1 (centres undefined),inconclusive: 100 µM,–
Cc1cccc(Nc2ccccc2C(=O)O)c1C,–,inactive
NC(N)=NC(=O)c1nc(Cl)c(N)nc1N,–,inactive
N#Cc1cscn1,inconclusive: 0.0823 µM,–
ClC(c1ccccc1)(c1ccccc1)c1ccccc1,inconclusive: 1.44 µM,–
CC(O)CN(CCN(CC(C)O)CC(C)O)CC(C)O (centres undefined),inconclusive: 100 µM,–
CC1CCC(C(=O)O)CC1 (centres undefined),–,inactive
O=S(=O)(O)c1ccc(O)c2ncccc12,inconclusive: 0.0835 µM,–

Compound,AC50,outcome
CC(=O)C(C)O (centres undefined),–,inactive
CCCCCCCCc1ccc(S(=O)(=O)O)cc1,inconclusive: 20.8 µM,–
Cc1c(Cl)cccc1Cl,inconclusive: 100 µM,–
O=C(O)c1snc(Cl)c1Cl,–,inactive
CC(C)CCOC(=O)c1ccccc1,inconclusive: 100 µM,–
CCOC(=O)C=Cc1ccccc1,inconclusive: 49.1 µM,–
O=C(O)c1ccc(C(=O)O)cc1,inconclusive: 100 µM,–
NS(=O)(=O)O,–,inactive
Cc1ccc(Nc2ccc(O)c3c2C(=O)c2ccccc2C3=O)cc1,–,inactive
CC1=NN(c2ccc(S(=O)(=O)O)cc2)C(=O)C1,–,inactive
NC(=O)C(F)(F)C(F)(F)C(F)(F)C(F)(F)C(N)=O,inconclusive: 273 µM,–
CCCCCCCCCC/C=C/C1CC(=O)OC1=O (centres undefined),inconclusive: 38 µM,–
